Test results as given in patent EP4737450A1 (Longwood Pharmaceuticals (Hangzhou) Co., Ltd, priority 2023, dated 2025).

Sequences of proteins named here, by UniProt entry; tags and fusion partners are left off. Residues count along the entry.
UniProt P03952, 391-638 limits assumed: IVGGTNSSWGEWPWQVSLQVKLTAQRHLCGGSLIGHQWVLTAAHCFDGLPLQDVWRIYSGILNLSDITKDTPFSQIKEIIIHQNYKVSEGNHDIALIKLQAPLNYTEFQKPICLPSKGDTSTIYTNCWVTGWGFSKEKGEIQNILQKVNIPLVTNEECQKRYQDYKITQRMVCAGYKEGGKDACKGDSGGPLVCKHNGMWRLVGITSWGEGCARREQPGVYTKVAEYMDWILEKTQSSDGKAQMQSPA
UniProt P03952, 20-390 partner limits assumed: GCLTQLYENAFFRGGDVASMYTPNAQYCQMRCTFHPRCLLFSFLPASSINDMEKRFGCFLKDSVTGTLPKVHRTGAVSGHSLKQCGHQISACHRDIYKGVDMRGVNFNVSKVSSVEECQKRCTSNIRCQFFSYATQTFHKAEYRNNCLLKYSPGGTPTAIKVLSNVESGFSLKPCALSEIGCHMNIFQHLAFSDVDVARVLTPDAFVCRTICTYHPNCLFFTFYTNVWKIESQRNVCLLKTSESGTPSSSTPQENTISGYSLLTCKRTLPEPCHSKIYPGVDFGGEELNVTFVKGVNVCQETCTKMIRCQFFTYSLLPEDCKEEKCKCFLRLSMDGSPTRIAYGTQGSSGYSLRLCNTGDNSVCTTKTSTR

Target: plasma kallikrein (PKa) (Homo sapiens, UniProt P03952)
Assay: Inhibitory activity against plasma kallikrein in vitro (fluorescence intensity enzyme assay, Pro-Phe-Arg-AMC substrate)
Format: biochemical
Settings: read-out: PKa IC50

COCc1nn(Cc2ccc(Oc3ccccc3)cc2)cc1C(=O)NCc1cn2c(n1)CNCC2
IC50: > 1 µM

Structures were worked out from names or drawings and are uncertain.
